Experimental data: PubChem BioAssay AID1224830 (NIAID, 2016)
Test: 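Regulators of TLR4 signalling towards TNF-alpha in macrophage-like cells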 (primary screen). Cells: human THP-1 monocytic leukaemia cells, TNF dual-luciferase reporter clone, PMA-differentiated to macrophage-like cells. Reagents: siRNA pool against human genes, 50 nM. Timing: LPS for 4 h, given about 3 days after siRNA transfection. Conditions: bacterial LPS (TLR4 ligand), 10 ng/ml. Measurement: 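TNF firefly reporter luminescence divided by renilla, normalised to the plate median, then turned into a robust z-score for each replicate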. Reading the numbers: TNF reporter robust z-score: higher = stronger TNF reporter response to LPS. Rule for the call: 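a well is active when its z-score exceeds 2.8 or falls below -1.5; control wells carry no call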.
The whole screen tested about 18,000 reagents; this is a random part of them. Over the whole deposit, about 2,900 (16%) are marked active. 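Calls are made per well; low scores hint the gene aids the LPS response, high scores that it dampens it.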 Repeated entries: four replicate wells of each siRNA pool.

Gene	TNF reporter robust z-score	outcome
IFITM3	2.76	inactive
IFITM3	3.1	active
IFITM3	2.21	inactive
IFITM3	0.24	inactive
GM2A	-1.15	inactive
GM2A	-1.02	inactive
GM2A	0.47	inactive
GM2A	-1.1	inactive
ALKBH4	0.92	inactive
ALKBH4	0.96	inactive
ALKBH4	-0.07	inactive
ALKBH4	0.74	inactive
CTTNBP2NL	0.24	inactive
CTTNBP2NL	1.65	inactive
CTTNBP2NL	-1.48	inactive
CTTNBP2NL	-0.22	inactive
TMSB10	-1.73	active
TMSB10	-0.08	inactive
TMSB10	-1	inactive
TMSB10	-1.08	inactive
INPP5K	-1.13	inactive
INPP5K	-0.35	inactive
INPP5K	-0.8	inactive
INPP5K	-0.87	inactive
RNF31	-0.88	inactive
RNF31	-0.48	inactive
RNF31	0.43	inactive
RNF31	-0.32	inactive
RAB40C	0.18	inactive
RAB40C	-0.26	inactive
RAB40C	0.03	inactive
RAB40C	-0.53	inactive
FOLR3	0.08	inactive
FOLR3	-1.27	inactive
FOLR3	-0.38	inactive
FOLR3	0.91	inactive
LDLRAD1	0.29	inactive
LDLRAD1	1.4	inactive
LDLRAD1	1.7	inactive
LDLRAD1	-0.02	inactive
HIRA	-1.21	inactive
HIRA	-0.89	inactive
HIRA	-0.97	inactive
HIRA	-0.27	inactive
NOP16	2.46	inactive
NOP16	1.91	inactive
NOP16	1.44	inactive
NOP16	-1	inactive
DDR2	0.81	inactive
DDR2	4.77	active
DDR2	0.26	inactive
DDR2	1.42	inactive
OR2M3	0.09	inactive
OR2M3	-0.86	inactive
OR2M3	-0.98	inactive
OR2M3	-0.14	inactive
OVCA2	-0.45	inactive
OVCA2	4.25	active
OVCA2	-1.09	inactive
OVCA2	-0.38	inactive
BCL7A	-0.6	inactive
BCL7A	0.02	inactive
BCL7A	-0.4	inactive
BCL7A	-0.95	inactive
IGF2BP2-AS1	-0.35	inactive
IGF2BP2-AS1	0.36	inactive
IGF2BP2-AS1	-0.36	inactive
IGF2BP2-AS1	-0.48	inactive
TMTC1		inactive
LRRC47	-0.94	inactive
LRRC47	-0.8	inactive
LRRC47	0.71	inactive
LRRC47	-0.69	inactive
EPN3	1.66	inactive
EPN3	1.27	inactive
EPN3	1.61	inactive
EPN3	2.77	inactive
TSPAN12	-0.08	inactive
TSPAN12	-0.74	inactive
TSPAN12	-1.36	inactive
TSPAN12	-0.39	inactive
SPATA2	-0.56	inactive
SPATA2	1.89	inactive
SPATA2	-0.03	inactive
SPATA2	-0.43	inactive
MFAP4	-0.92	inactive
MFAP4	-0.72	inactive
MFAP4	-0.9	inactive
MFAP4	-0.98	inactive
COL5A2	0	inactive
COL5A2	0.33	inactive
COL5A2	-0.07	inactive
COL5A2	1.02	inactive
PIDD1	-0.53	inactive
PIDD1	-0.15	inactive
PIDD1	-1.18	inactive
PIDD1	-0.57	inactive
ADAMTS4	0.33	inactive
ADAMTS4	0.54	inactive
ADAMTS4	0.01	inactive
ADAMTS4	-0.98	inactive
KAT2B	-0.22	inactive
KAT2B	-0.84	inactive
KAT2B	-0.96	inactive
KAT2B	-1.27	inactive
APEX1	-0.79	inactive
APEX1	-0.66	inactive
APEX1	-0.54	inactive
APEX1	-1.14	inactive
ZHX1	1.52	inactive
ZHX1	0.11	inactive
ZHX1	1.95	inactive
ZHX1	0.3	inactive

Active calls (from the list above):
Gene	TNF reporter robust z-score	outcome
IFITM3	3.1	active
TMSB10	-1.73	active
DDR2	4.77	active
OVCA2	4.25	active
